Our source for the self-aminoacylation values is the supplement of paper PMC9233669.

Variants at the background level are over-represented here.

Data set [1] relates to biotinyl-Ile-oxazolone. The experiment in a line: self-aminoacylation, catalytic enhancement (BIO) (fold over background); higher = more active; k-Seq, kA / k0A0; sequences stand for … in GGGAAUGGAUCCACAUCUACGAAUUC…UUCACUGCAGACUUGACGAAGCUG
Put shortly:
(§1)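 Working in 50 μL HEPES/NaCl/KCl/MgCl2/CaCl2 buffer with 5% acetonitrile at pH 6.9–7.0, mutagenized RNA pools (0.43 μM; 21-nt variable region) were reacted with 2–1250 μM of each biotinyl-aminoacyl-oxazolone for 90 minutes at room temperature. Streptavidin capture followed, with quantification by triplicate qPCR and Illumina sequencing. Catalytic enhancement is reported as median kA over the uncatalyzed rate, the low-activity peak of a bimodal Gaussian fit to the data.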

In data set [2] the test system is biotinyl-Val-oxazolone. In words: self-aminoacylation, catalytic enhancement (BVO) (fold over background); higher = more active; k-Seq, kA / k0A0; sequences stand for … in GGGAAUGGAUCCACAUCUACGAAUUC…UUCACUGCAGACUUGACGAAGCUG
Put shortly:
as §1

Data set [3] has as its system biotinyl-Met-oxazolone. The experiment in a line: self-aminoacylation, catalytic enhancement (BMO) (fold over background); higher = more active; k-Seq, kA / k0A0; sequences stand for … in GGGAAUGGAUCCACAUCUACGAAUUC…UUCACUGCAGACUUGACGAAGCUG
Put shortly:
as §1

Data set [4] concerns biotinyl-Leu-oxazolone. The experiment in a line: self-aminoacylation, catalytic enhancement (BLO) (fold over background); higher = more active; k-Seq, kA / k0A0; sequences stand for … in GGGAAUGGAUCCACAUCUACGAAUUC…UUCACUGCAGACUUGACGAAGCUG
The procedure, abridged:
as §1

Data set [5] relates to biotinyl-Trp-oxazolone. In words: self-aminoacylation, catalytic enhancement (BWO) (fold over background); higher = more active; k-Seq, kA / k0A0; sequences stand for … in GGGAAUGGAUCCACAUCUACGAAUUC…UUCACUGCAGACUUGACGAAGCUG
Put shortly:
as §1

For the sequence “AUUACCGUGGUCAUCGAGUGU [Fam2.1 aminoacylation ribozyme variant]”, the self-aminoacylation worked out at 1.89 in data set [1]; 2.46 in data set [2]; 3.17 in data set [3]; 3.51 in data set [4]; 4.27 in data set [5].
On to “AUUCACCUACGUCAUCGGCUG [Fam2.2 aminoacylation ribozyme variant]”, for which the self-aminoacylation in data set [1] came to 1.32; in data set [2], 1.38; in data set [3] it was 1.33; in data set [4], 1.18; in data set [5], 1.49.
For “AUUUCCCUGGUCUUCGAGUGA [Fam2.1 aminoacylation ribozyme variant]”, the self-aminoacylation in data set [1] was found to be 4.33; in data set [2], 4.6; in data set [3] it was 6.94; in data set [4] it was 7.28; in data set [5] it was 9.21.
Take “CCACACUUCAAGCAAUCGCCC [Fam1B.1 aminoacylation ribozyme variant]”: the self-aminoacylation in data set [1] was 0.996; in data set [2], 2.32; in data set [3] it was 1.33; in data set [4] it was 2; in data set [5] it was 1.58.
With “AAAUUUGCUAAUAGUCGAAAG [Fam3.1 aminoacylation ribozyme variant]”, the self-aminoacylation in data set [1] is 1.55; in data set [2], 1.17; in data set [3] it was 1.44; in data set [4] it was 1.27; in data set [5], 1.43.
Take “AUACUUCAAACAAUCGGUCUA [Fam1A.1 aminoacylation ribozyme variant]”: the self-aminoacylation in data set [1] was found to be 0.636; in data set [2] it was 0.674; in data set [3], 0.503; in data set [4], 0.564; in data set [5] it was 1.9.
Turning to “CCACACUGCAGGCAAUCGGUC [Fam1B.1 aminoacylation ribozyme variant]”, the self-aminoacylation in data set [1] amounted to 1.44; in data set [2], 2.17; in data set [3], 1.76; in data set [4], 1.57; in data set [5] it was 1.38.
Consider “CUCCAUCAAACAAUCGGUCUG [Fam1A.1 aminoacylation ribozyme variant]”, for which the self-aminoacylation in data set [1] came out at 1.08; in data set [2], 0.86; in data set [3], 1.19; in data set [4] it was 0.94; in data set [5], 1.64.
The matching figures for “CUACUUCAAACAAUCGGACUC [Fam1A.1 aminoacylation ribozyme variant]”: 0.675, 0.7, 0.563, 0.624 and 2.57.
Consider “ACACACUUCAAGCAAUAGGUC [Fam1B.1 aminoacylation ribozyme variant]”, for which the self-aminoacylation in data set [1] is 0.894; in data set [2] it was 0.976; in data set [3], 0.828; in data set [4], 0.737; in data set [5], 0.901.
Consider “AAGGUUGCUAAUGGUCGCAAG [Fam3.1 aminoacylation ribozyme variant]”, for which the self-aminoacylation in data set [1] turned out to be 1.06; in data set [2], 1; in data set [3], 0.949; in data set [4], 0.828; in data set [5] it was 0.994.
As to “CUACUUCAGACAAUGGGUCUG [Fam1A.1 aminoacylation ribozyme variant]”, the self-aminoacylation was determined as 0.948 in data set [1]; 0.791 in data set [2]; 0.798 in data set [3]; 0.916 in data set [4]; 0.664 in data set [5].
For the sequence “AAGUUUACCAAUAGUCGCAAG [Fam3.1 aminoacylation ribozyme variant]”, the self-aminoacylation in data set [1] is 1.98; in data set [2], 1.67; in data set [3], 1.48; in data set [4], 1.42; in data set [5], 1.78.
Turning to “UUACUCCAAACAAUCGGUCUG [Fam1A.1 aminoacylation ribozyme variant]”, the self-aminoacylation in data set [1] stood at 0.908; in data set [2], 0.977; in data set [3], 0.825; in data set [4] it was 0.992; in data set [5] it was 2.69.
As to “AUUCACCUAGUUCAUCGGGAG [Fam2.2 aminoacylation ribozyme variant]”, the self-aminoacylation in data set [1] is 1.16; in data set [2], 0.943; in data set [3], 1.07; in data set [4], 1.19; in data set [5], 1.04.
With “CUGCUUCAAACAAUCGUUCUG [Fam1A.1 aminoacylation ribozyme variant]”, the self-aminoacylation in data set [1] stood at 0.549; in data set [2] it was 0.516; in data set [3] it was 0.424; in data set [4] it was 0.486; in data set [5], 1.29.
With “CCACACUUCAAUUAAUCGGUC [Fam1B.1 aminoacylation ribozyme variant]”, the self-aminoacylation in data set [1] came to 1.01; in data set [2] it was 1.06; in data set [3] it was 0.937; in data set [4] it was 1.09; in data set [5] it was 15.6.
In the same order, the values of “CUACUGCAAACAAUCGGUGUG [Fam1A.1 aminoacylation ribozyme variant]” are 1.11, 0.893, 1.33, 1.24 and 1.36.
Turning to “AUUCACCAAGGUCAUCGGGUC [Fam2.2 aminoacylation ribozyme variant]”, the self-aminoacylation stood at 1.38 in data set [1]; 1.26 in data set [2]; 1.22 in data set [3]; 1.67 in data set [4]; 0.64 in data set [5].
On to “AUUCACCUAGGUCAUCAUGUG [Fam2.2 aminoacylation ribozyme variant]”, for which the self-aminoacylation worked out at 1.06 in data set [1]; 1.1 in data set [2]; 1.44 in data set [3]; 1.64 in data set [4]; 1.03 in data set [5].
The matching figures for “AAGUAUGCUAAGAGUCGCAAG [Fam3.1 aminoacylation ribozyme variant]”: 1.37, 1.14, 1.58, 1.71 and 1.69.
In the case of “AUUUUCCUAGGUCAUCGGGUG [Fam2.2 aminoacylation ribozyme variant]”, the self-aminoacylation in data set [1] amounted to 4.64; in data set [2] it was 4.16; in data set [3], 6.79; in data set [4], 9.58; in data set [5] it was 6.89.
In the case of “AAGUUUACUAAUAGGCGCAAG [Fam3.1 aminoacylation ribozyme variant]”, the self-aminoacylation in data set [1] worked out at 1.21; in data set [2], 1.02; in data set [3], 1.07; in data set [4], 0.954; in data set [5] it was 0.846.
For “CAGCACUUCAAGCAAUCGGUC [Fam1B.1 aminoacylation ribozyme variant]”, the self-aminoacylation came to 1.67 in data set [1]; 1.55 in data set [2]; 1.79 in data set [3]; 2.33 in data set [4]; 22.1 in data set [5].
For the sequence “CGACUUCAAUCAAUCGGUCUG [Fam1A.1 aminoacylation ribozyme variant]”, the self-aminoacylation stood at 1.46 in data set [1]; 1.7 in data set [2]; 1.62 in data set [3]; 2.21 in data set [4]; 24.3 in data set [5].
As to “CUACACUUUAAGCAAUCGGUC [Fam1B.1 aminoacylation ribozyme variant]”, the self-aminoacylation in data set [1] was 0.768; in data set [2] it was 0.74; in data set [3], 0.63; in data set [4] it was 0.585; in data set [5] it was 0.565.
For “AAGUCUGCUAAAAGUCGCAAG [Fam3.1 aminoacylation ribozyme variant]”, the self-aminoacylation amounted to 1.35 in data set [1]; 1.23 in data set [2]; 1.92 in data set [3]; 1.72 in data set [4]; 6.66 in data set [5].
“AAGUUUGCUGAUAGUCGCAGG [Fam3.1 aminoacylation ribozyme variant]”: the self-aminoacylation came to 1.48 in data set [1]; 1.33 in data set [2]; 1.99 in data set [3]; 1.9 in data set [4]; 1.83 in data set [5].
